Data source: PubChem BioAssay AID1259308 (NCATS, 2017)

Purpose: 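Knock-downs that increase output of a recombinant reporter protein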 (primary screen)
System: human HEK293 embryonic kidney cells stably expressing firefly luciferase (HEK-CMV-Luc2-Hygro)
Reagents: single siRNA against human genes, 0.8 pmol siRNA per well
Timing: 72 h
Read-out: 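Luciferase light (ONE-Glo) measured on one replicate plate set and viability (CellTiter-Glo) on the other, scaled to a negative control siRNA, with robust z-scores and luciferase per cell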
Direction: total luciferase, z-score and total luciferase, % of control: higher = more reporter protein produced; luciferase per cell, z-score: higher = more reporter output per viable cell
Call rule: 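Active when the median/MAD z-score for overall luciferase is greater than 3; a gene was taken forward for validation with new siRNAs if at least two of its three siRNAs passed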
Meaning of the calls: active = raised luciferase; inactive = no rise
This is an unselected part of about 59,000 reagents. Over the whole deposit, about 1,510 (2.6%) are marked active. 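Calls use total luciferase alone and ignore viability, so some active siRNAs may act by altering cell number.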 The numbers tell different reagents against one gene apart. Not all columns of the deposit are shown.

| Target gene | reagent no. | total luciferase, z-score | total luciferase, % of control | luciferase per cell, z-score | outcome |
| --- | --- | --- | --- | --- | --- |
| DENND1B (DENN domain containing 1B) | 1 | 0.443 | 90.7 | 0.429 | inactive |
| DENND1B (DENN domain containing 1B) | 2 | 1.37 | 109 | 0.793 | inactive |
| DENND1B (DENN domain containing 1B) | 3 | -1.84 | 45.2 | -1.54 | inactive |
| DENND1B (DENN domain containing 1B) | 4 | 2.57 | 133 | 1.88 | inactive |
| DENND1B (DENN domain containing 1B) | 5 | -0.295 | 76 | -0.0822 | inactive |
| DENND1B (DENN domain containing 1B) | 6 | -1.56 | 50.8 | -0.814 | inactive |
| S100A8 (S100 calcium binding protein A8) | 1 | 2.09 | 124 | 2.55 | inactive |
| S100A8 (S100 calcium binding protein A8) | 2 | 1.31 | 108 | 0.259 | inactive |
| S100A8 (S100 calcium binding protein A8) | 3 | 0.154 | 85 | 1.28 | inactive |
| XKR5 (XK related 5) | 1 | 1.58 | 113 | 1.88 | inactive |
| XKR5 (XK related 5) | 2 | -1.55 | 51.1 | -0.403 | inactive |
| XKR5 (XK related 5) | 3 | -0.0445 | 81 | 0.197 | inactive |
| ARHGAP29 (Rho GTPase activating protein 29) | 1 | -0.268 | 76.6 | -0.378 | inactive |
| ARHGAP29 (Rho GTPase activating protein 29) | 2 | -0.392 | 74.1 | 0.482 | inactive |
| ARHGAP29 (Rho GTPase activating protein 29) | 3 | -0.769 | 66.6 | -0.664 | inactive |
| U2SURP (U2 snRNP associated SURP domain containing) | 1 | -0.894 | 64.1 | 0.351 | inactive |
| U2SURP (U2 snRNP associated SURP domain containing) | 2 | 1.38 | 109 | 1.01 | inactive |
| U2SURP (U2 snRNP associated SURP domain containing) | 3 | 2.11 | 124 | 1.75 | inactive |
| C16orf82 (chromosome 16 open reading frame 82) | 1 | -0.878 | 64.4 | -0.461 | inactive |
| C16orf82 (chromosome 16 open reading frame 82) | 2 | 0.295 | 87.8 | 1.17 | inactive |
| C16orf82 (chromosome 16 open reading frame 82) | 3 | 0.271 | 87.3 | -0.39 | inactive |
| ZBED3 (zinc finger BED-type containing 3) | 1 | -0.611 | 69.7 | -0.296 | inactive |
| ZBED3 (zinc finger BED-type containing 3) | 2 | -1.67 | 48.6 | -0.661 | inactive |
| ZBED3 (zinc finger BED-type containing 3) | 3 | 0.222 | 86.3 | 0.675 | inactive |
| UBE2QL1 (ubiquitin conjugating enzyme E2 QL1) | 1 | -0.499 | 72 | 0.115 | inactive |
| UBE2QL1 (ubiquitin conjugating enzyme E2 QL1) | 2 | 0.554 | 92.9 | 0.11 | inactive |
| UBE2QL1 (ubiquitin conjugating enzyme E2 QL1) | 3 | 0.616 | 94.1 | 0.17 | inactive |
| SH3BP2 (SH3 domain binding protein 2) | 1 | 1.71 | 116 | 1.4 | inactive |
| SH3BP2 (SH3 domain binding protein 2) | 2 | -0.0164 | 81.6 | 0.413 | inactive |
| SH3BP2 (SH3 domain binding protein 2) | 3 | 0.737 | 96.5 | 0.847 | inactive |
| OMG (oligodendrocyte myelin glycoprotein) | 1 | 0.922 | 100 | 0.697 | inactive |
| OMG (oligodendrocyte myelin glycoprotein) | 2 | 0.138 | 84.6 | -0.158 | inactive |
| OMG (oligodendrocyte myelin glycoprotein) | 3 | -1.38 | 54.4 | -1.75 | inactive |

4 entries from above, reformatted.
UBE2QL1 (ubiquitin conjugating enzyme E2 QL1) #3: total luciferase, z-score = 0.616; total luciferase, % of control = 94.1; luciferase per cell, z-score = 0.17; outcome = inactive
SH3BP2 (SH3 domain binding protein 2) #1: total luciferase, z-score = 1.71; total luciferase, % of control = 116; luciferase per cell, z-score = 1.4; outcome = inactive
SH3BP2 (SH3 domain binding protein 2) #2: total luciferase, z-score = -0.0164; total luciferase, % of control = 81.6; luciferase per cell, z-score = 0.413; outcome = inactive
SH3BP2 (SH3 domain binding protein 2) #3: total luciferase, z-score = 0.737; total luciferase, % of control = 96.5; luciferase per cell, z-score = 0.847; outcome = inactive

Additional records follow.
| Target gene | reagent no. | total luciferase, z-score | total luciferase, % of control | luciferase per cell, z-score | outcome |
| --- | --- | --- | --- | --- | --- |
| RNASE8 (ribonuclease A family member 8) | 1 | 0.0791 | 83.5 | -0.412 | inactive |
| RNASE8 (ribonuclease A family member 8) | 2 | -0.917 | 63.7 | -1.21 | inactive |
| RNASE8 (ribonuclease A family member 8) | 3 | 0.471 | 91.3 | 0.554 | inactive |
| RSPO4 (R-spondin 4) | 1 | -0.95 | 63 | -0.263 | inactive |
| RSPO4 (R-spondin 4) | 2 | 2.5 | 132 | 1.89 | inactive |
| RSPO4 (R-spondin 4) | 3 | -2.11 | 39.9 | -0.929 | inactive |
| TENT5C (terminal nucleotidyltransferase 5C) | 1 | 1.3 | 108 | 0.489 | inactive |
| TENT5C (terminal nucleotidyltransferase 5C) | 2 | 0.331 | 88.5 | -0.158 | inactive |
| TENT5C (terminal nucleotidyltransferase 5C) | 3 | -1.38 | 54.4 | -1.3 | inactive |
| ADAMTS18 (ADAM metallopeptidase with thrombospondin type 1 motif 18) | 1 | -0.899 | 64 | -0.88 | inactive |
| ADAMTS18 (ADAM metallopeptidase with thrombospondin type 1 motif 18) | 2 | -0.198 | 78 | -0.597 | inactive |
| ADAMTS18 (ADAM metallopeptidase with thrombospondin type 1 motif 18) | 3 | 0.281 | 87.5 | 0.0484 | inactive |
| AKAP7 (A-kinase anchoring protein 7) | 1 | 0.85 | 98.8 | 1.35 | inactive |
| AKAP7 (A-kinase anchoring protein 7) | 2 | 0.491 | 91.6 | 0.0361 | inactive |
| AKAP7 (A-kinase anchoring protein 7) | 3 | -0.28 | 76.3 | 0.0765 | inactive |
| LOC441722 (U2 small nuclear RNA auxiliary factor 1-like 4 pseudogene) | 1 | 0.375 | 89.3 | 1.65 | inactive |
| LOC441722 (U2 small nuclear RNA auxiliary factor 1-like 4 pseudogene) | 2 | -0.963 | 62.7 | -0.13 | inactive |
| LOC441722 (U2 small nuclear RNA auxiliary factor 1-like 4 pseudogene) | 3 | -0.836 | 65.3 | -0.797 | inactive |
| TEC (tec protein tyrosine kinase) | 1 | 1.47 | 111 | 2.06 | inactive |
| TEC (tec protein tyrosine kinase) | 2 | 1.8 | 118 | 1.1 | inactive |
| TEC (tec protein tyrosine kinase) | 3 | 0.0707 | 83.3 | 1.28 | inactive |
| B3GALT4 (beta-1,3-galactosyltransferase 4) | 1 | 0.127 | 84.4 | 0.551 | inactive |
| B3GALT4 (beta-1,3-galactosyltransferase 4) | 2 | 0.231 | 86.5 | -0.238 | inactive |
| B3GALT4 (beta-1,3-galactosyltransferase 4) | 3 | 0.443 | 90.7 | -0.0881 | inactive |
